Consider ten targets from the supplement of paper PMC10849652.

By UniProt entry, the sequences of proteins in these tests, tags left out. Where a name states a change or a piece, a line headed by the entry shows the natural chain unless it says otherwise.
UniProt Q9H6U6: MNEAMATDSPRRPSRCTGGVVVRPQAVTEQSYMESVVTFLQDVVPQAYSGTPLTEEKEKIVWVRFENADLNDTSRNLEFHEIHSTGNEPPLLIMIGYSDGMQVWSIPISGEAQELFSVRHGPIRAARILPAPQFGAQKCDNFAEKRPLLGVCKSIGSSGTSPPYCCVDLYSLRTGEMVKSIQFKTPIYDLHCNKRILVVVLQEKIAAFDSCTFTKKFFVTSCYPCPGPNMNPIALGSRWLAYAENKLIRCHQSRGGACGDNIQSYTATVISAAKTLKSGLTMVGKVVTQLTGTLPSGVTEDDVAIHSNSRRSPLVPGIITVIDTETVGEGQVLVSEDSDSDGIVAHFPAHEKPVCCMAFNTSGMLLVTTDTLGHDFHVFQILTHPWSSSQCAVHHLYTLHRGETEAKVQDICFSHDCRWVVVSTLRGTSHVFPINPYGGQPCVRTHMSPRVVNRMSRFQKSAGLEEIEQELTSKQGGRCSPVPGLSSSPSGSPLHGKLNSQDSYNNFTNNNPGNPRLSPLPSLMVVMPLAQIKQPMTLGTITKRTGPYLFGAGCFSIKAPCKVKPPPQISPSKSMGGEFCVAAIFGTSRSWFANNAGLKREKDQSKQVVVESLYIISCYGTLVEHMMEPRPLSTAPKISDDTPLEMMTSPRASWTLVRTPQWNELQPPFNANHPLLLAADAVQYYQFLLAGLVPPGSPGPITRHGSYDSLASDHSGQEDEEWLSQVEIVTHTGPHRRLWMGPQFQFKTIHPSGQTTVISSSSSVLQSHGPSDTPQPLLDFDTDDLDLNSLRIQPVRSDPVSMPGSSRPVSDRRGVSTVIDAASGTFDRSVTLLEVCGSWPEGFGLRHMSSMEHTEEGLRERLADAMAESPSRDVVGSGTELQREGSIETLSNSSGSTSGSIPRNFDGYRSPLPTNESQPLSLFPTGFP
UniProt Q13867: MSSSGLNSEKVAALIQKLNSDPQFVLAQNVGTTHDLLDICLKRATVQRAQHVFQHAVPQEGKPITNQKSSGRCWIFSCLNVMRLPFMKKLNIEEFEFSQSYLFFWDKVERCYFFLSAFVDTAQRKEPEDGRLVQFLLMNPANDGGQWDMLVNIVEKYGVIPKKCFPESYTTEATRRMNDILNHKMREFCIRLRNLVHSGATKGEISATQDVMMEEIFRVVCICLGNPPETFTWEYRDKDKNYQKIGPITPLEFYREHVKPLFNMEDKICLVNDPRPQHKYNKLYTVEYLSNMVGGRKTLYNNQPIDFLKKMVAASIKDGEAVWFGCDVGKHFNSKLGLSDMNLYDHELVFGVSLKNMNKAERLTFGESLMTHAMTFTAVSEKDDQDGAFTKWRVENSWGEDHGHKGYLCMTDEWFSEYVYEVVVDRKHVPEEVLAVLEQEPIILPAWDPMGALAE
UniProt Q7KYR7: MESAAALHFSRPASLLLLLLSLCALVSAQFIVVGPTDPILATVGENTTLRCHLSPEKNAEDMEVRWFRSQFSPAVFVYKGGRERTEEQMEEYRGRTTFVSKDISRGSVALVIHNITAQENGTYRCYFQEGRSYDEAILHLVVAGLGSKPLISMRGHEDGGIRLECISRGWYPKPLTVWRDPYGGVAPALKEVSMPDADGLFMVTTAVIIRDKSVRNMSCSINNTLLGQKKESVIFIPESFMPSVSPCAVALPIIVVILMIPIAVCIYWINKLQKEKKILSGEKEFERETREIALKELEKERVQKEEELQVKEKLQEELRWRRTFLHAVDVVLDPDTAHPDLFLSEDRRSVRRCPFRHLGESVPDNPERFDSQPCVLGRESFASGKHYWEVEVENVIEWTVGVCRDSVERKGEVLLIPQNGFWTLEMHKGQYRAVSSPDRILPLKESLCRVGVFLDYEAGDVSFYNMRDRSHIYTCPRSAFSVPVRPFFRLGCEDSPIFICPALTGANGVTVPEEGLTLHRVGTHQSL
UniProt P15056, whole entry, looked up: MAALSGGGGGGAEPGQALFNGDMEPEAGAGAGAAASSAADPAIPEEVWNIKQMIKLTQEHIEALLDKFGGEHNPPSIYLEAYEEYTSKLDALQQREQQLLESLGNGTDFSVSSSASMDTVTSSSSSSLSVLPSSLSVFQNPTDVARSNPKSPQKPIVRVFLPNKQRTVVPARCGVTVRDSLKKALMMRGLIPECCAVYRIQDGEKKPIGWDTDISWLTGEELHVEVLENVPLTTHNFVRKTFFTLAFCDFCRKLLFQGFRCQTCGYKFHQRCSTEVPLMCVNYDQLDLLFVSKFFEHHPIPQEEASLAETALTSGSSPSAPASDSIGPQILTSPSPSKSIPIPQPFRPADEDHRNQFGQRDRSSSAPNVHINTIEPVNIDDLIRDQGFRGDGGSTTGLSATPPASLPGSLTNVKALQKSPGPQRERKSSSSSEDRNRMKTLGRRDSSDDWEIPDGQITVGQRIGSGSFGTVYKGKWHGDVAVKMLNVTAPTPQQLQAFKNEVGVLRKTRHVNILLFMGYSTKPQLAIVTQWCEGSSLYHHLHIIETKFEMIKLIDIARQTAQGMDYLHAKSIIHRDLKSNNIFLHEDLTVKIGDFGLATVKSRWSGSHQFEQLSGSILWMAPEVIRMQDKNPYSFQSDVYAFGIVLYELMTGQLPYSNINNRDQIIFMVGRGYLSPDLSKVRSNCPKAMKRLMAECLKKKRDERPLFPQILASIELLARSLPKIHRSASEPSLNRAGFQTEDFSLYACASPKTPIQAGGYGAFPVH
UniProt Q9BXY8: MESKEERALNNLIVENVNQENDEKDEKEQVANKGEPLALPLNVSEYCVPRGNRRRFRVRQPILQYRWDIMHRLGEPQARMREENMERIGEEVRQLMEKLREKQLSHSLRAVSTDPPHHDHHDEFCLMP
UniProt P15291: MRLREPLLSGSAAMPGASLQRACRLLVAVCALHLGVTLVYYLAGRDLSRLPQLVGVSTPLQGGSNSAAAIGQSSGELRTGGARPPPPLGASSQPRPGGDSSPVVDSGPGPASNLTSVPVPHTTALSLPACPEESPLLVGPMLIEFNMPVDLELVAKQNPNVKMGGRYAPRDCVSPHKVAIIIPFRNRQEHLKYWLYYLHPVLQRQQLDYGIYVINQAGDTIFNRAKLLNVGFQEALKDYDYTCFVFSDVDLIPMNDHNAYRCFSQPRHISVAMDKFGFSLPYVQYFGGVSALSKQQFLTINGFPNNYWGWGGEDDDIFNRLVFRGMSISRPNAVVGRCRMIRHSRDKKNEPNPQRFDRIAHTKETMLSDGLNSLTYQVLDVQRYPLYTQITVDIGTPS
UniProt Q92994: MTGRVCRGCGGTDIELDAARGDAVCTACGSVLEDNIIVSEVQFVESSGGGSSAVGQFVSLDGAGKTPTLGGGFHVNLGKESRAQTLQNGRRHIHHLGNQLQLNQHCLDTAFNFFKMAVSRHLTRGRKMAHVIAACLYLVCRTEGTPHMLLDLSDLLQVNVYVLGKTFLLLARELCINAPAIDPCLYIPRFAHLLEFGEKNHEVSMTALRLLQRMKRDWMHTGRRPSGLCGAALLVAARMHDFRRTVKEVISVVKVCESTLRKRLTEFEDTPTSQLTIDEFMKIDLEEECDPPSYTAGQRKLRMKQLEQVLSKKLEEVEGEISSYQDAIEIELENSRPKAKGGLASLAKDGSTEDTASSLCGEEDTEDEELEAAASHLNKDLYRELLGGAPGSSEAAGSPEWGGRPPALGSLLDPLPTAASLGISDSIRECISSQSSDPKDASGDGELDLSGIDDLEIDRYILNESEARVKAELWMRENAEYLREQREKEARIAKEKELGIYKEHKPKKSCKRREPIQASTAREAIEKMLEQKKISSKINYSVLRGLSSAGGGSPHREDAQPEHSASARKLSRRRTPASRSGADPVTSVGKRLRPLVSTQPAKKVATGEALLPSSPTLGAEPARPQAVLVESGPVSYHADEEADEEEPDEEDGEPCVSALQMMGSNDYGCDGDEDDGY
UniProt Q4VC05, whole entry, looked up: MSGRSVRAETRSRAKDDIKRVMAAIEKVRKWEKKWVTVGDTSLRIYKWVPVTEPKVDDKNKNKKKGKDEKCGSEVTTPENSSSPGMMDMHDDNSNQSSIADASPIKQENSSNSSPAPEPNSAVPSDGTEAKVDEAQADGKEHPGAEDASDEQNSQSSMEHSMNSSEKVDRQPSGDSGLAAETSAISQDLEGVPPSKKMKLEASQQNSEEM

The other results are listed elsewhere or left out.

What all share (assay): log2 fold change, soluble protein after heating vs DMSO (PISA); higher = thermal stabilisation; K562 lysate, 10 uM; active = over 0.2 and 3.5 SD of the protein, either way, in both replicates (recomputed)
Compound in experiment [1]: CS(=O)(=O)CCNCc1ccc(-c2ccc3ncnc(Nc4ccc(OCc5cccc(F)c5)c(Cl)c4)c3c2)o1 [lapatinib]
In a few lines: (§1)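 Dounce homogenisation of K562 pellets in PBS pH 7.4 with 1 mM MgCl2 produced a crude extract, used at 1 mg/mL protein. Exposure to 10 μM compound lasted 30 min, and aliquots were then heated for 3 min across 48°C-58°C, pooled and brought to 0.5% NP-40 at 4°C. The supernatant after 21,000xg for 90 min was quantified by TMTpro 16plex LC-MS/MS with channel sums equalised. Duplicate values are given as log-two fold change in thermal stability relative to solvent controls.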

Compound in experiment [2]: CS(=O)(=O)N1CCN(Cc2cc3nc(-c4cccc5[nH]ncc45)nc(N4CCOCC4)c3s2)CC1 [pictilisib]
The procedure, abridged:
as §1

Compound in experiment [3]: C[C@@H](Oc1cc(-c2cnn(C3CCNCC3)c2)cnc1N)c1c(Cl)ccc(F)c1Cl [crizotinib]
In a few lines: as §1

Compound in experiment [4]: C[C@H](C1=CC=C(C=C1)C(=O)NC2=C3C=CNC3=NC=C2)N
The procedure, abridged:
as §1

Compound in experiment [5]: C[C@H](Nc1ncnc2nc[nH]c12)c1cc2cccc(Cl)c2c(=O)n1-c1ccccc1 [duvelisib]
In a few lines:
as §1

Compound in experiment [6]: Cc1cc(Nc2cc(CN3CCOCC3)c3nc(C)c(Cc4ccc(Cl)cc4F)n3n2)n[nH]1 [gandotinib]
The procedure, abridged: as §1

Compound in experiment [7]: Cc1cc(Nc2cc(N3CCN(C)CC3)nc(Sc3ccc(NC(=O)C4CC4)cc3)n2)n[nH]1 [tozasertib]
In a few lines: as §1

Compound in experiment [8]: Cc1ccc(-n2nc(C(C)(C)C)cc2NC(=O)Nc2ccc(OCCN3CCOCC3)c3ccccc23)cc1 [doramapimod]
The procedure, abridged: as §1

Compound in experiment [9]: Cc1ccc(NC(=O)c2ccc(CN3CC[C@H](N(C)C)C3)c(C(F)(F)F)c2)cc1Nc1nccc(-c2cncnc2)n1 [bafetinib]
The procedure, abridged:
as §1

Compound in experiment [10]: Cc1cccc(CC(=O)N2CCc3c2ccc(-c2cn(C)c4ncnc(N)c24)c3F)n1
In a few lines: as §1

Compound in experiment [11]: Cc1nc(Nc2ncc(C(=O)Nc3c(C)cccc3Cl)s2)cc(N2CCN(CCO)CC2)n1 [dasatinib]
The procedure, abridged:
as §1

Compound in experiment [12]: Cn1cc(-c2ccc3c(c2)CCN3C(=O)Cc2cccc(C(F)(F)F)c2)c2c(N)ncnc21
The procedure, abridged:
as §1

Compound in experiment [13]: Cn1cc(CNCC2CCN(c3ncc(C(=O)NO)cn3)CC2)c2ccccc21 [quisinostat]
The procedure, abridged: as §1

Compound in experiment [14]: NC(=O)Nc1cc(-c2cccc(F)c2)sc1C(=O)N[C@H]1CCCNC1
In a few lines:
as §1

Compound in experiment [15]: NC(=O)c1cnc(N[C@@H]2CCCC[C@@H]2N)nc1Nc1cccc(-n2nccn2)c1
In a few lines:
as §1

Compound in experiment [16]: NC1(c2ccc(-c3nc4ccn5c(=O)[nH]nc5c4cc3-c3ccccc3)cc2)CCC1
In a few lines:
as §1

Compound in experiment [17]: Cc1cn(-c2cc(NC(=O)c3ccc(C)c(Nc4nccc(-c5cccnc5)n4)c3)cc(C(F)(F)F)c2)cn1 [nilotinib]
The procedure, abridged:
as §1

Compound in experiment [18]: Cc1nc(Nc2n[nH]c3c2CN(C(=O)N[C@H](CN(C)C)c2ccccc2)C3(C)C)c2sccc2n1
In a few lines: as §1

Compound in experiment [19]: Cc1ncc(-c2ccnc(Nc3ccc(S(C)(=O)=O)cc3)n2)n1C(C)C
The procedure, abridged:
as §1

Compound in experiment [20]: Cn1cncc1[C@@](N)(c1ccc(Cl)cc1)c1ccc2c(c1)c(-c1cccc(Cl)c1)cc(=O)n2C [tipifarnib]
The procedure, abridged: as §1

With BCAS3 isoform 8 (UniProt Q9H6U6), the log2 fold change in experiment [1] was inactive: 0.033; in experiment [2], inactive: 0.068; in experiment [3], inactive: -0.034; in experiment [4] it was inactive: -0.188; in experiment [5], inactive: 0.024; in experiment [6] it was inactive: 0.084. Further, the log2 fold change is inactive: -0.23 in experiment [7]; inactive: 0.043 in experiment [8]; inactive: 0.114 in experiment [9]; inactive: 0.025 in experiment [10]; inactive: -0.039 in [11]; inactive: -0.078 in [12]. In addition, the log2 fold change in [13] was inactive: -0.022; in experiment [14] it was inactive: 0.031; in experiment [15], inactive: -0.054; in experiment [16], inactive: 0.023.
Consider BLMH (UniProt Q13867), for which the log2 fold change is inactive: -0.031 in experiment [1]; inactive: 0.015 in experiment [2]; inactive: 0.016 in experiment [3]; inactive: -0.022 in experiment [4]; inactive: -0.002 in experiment [5]; inactive: 0.088 in experiment [6]. In addition, the log2 fold change was inactive: -0.004 in experiment [7]; inactive: 0.005 in [8]; inactive: 0.057 in experiment [9]; inactive: 0.015 in experiment [10]; inactive: -0.002 in [17]; inactive: -0.024 in experiment [18]. The log2 fold change is inactive: 0.04 in [11]; inactive: -0.025 in experiment [19]; inactive: -0.006 in experiment [12]; inactive: -0.044 in experiment [13]; inactive: -0.033 in experiment [20]; inactive: 0 in [14]. Further, the figures for the log2 fold change in [15] and in experiment [16] were inactive: -0.017 and inactive: 0.025, respectively.
For the target BTN2A1 (UniProt Q7KYR7), the log2 fold change in experiment [1] was inactive: 0.018; in experiment [2] it was inactive: 0.018; in experiment [3], inactive: 0.018; in experiment [4], inactive: -0.087; in experiment [5], inactive: -0.05; in [6], inactive: 0.02. In addition, the log2 fold change was inactive: 0.067 in [7]; inactive: -0.009 in experiment [8]; inactive: -0.04 in experiment [9]; inactive: 0.026 in experiment [10]; inactive: -0.084 in [17]; inactive: -0.04 in experiment [18]. The log2 fold change in experiment [11] was inactive: 0.021; in [19], inactive: 0.175; in experiment [12], inactive: 0.051; in experiment [13], inactive: -0.032; in [20] it was inactive: -0.08; in [14], inactive: 0.015. Further, the log2 fold change in experiment [15] was inactive: 0.053; in [16] it was inactive: 0.015.
Consider BRAF (UniProt P15056), for which the log2 fold change in [2] was inactive: -0.025; in experiment [3], inactive: -0.099; in [4] it was inactive: -0.086; in [5], inactive: 0.015; in experiment [6] it was inactive: 0.014; in [7], inactive: -0.013. In addition, the log2 fold change in experiment [9] was active: 0.64; in [10] it was inactive: 0.065; in experiment [18] it was inactive: 0.011; in [19], inactive: -0.043; in experiment [12], inactive: 0.002; in [13], inactive: -0.173. The log2 fold change is inactive: -0.006 in experiment [20], inactive: 0.018 in [14] and inactive: 0.007 in [15].
As for BIRC6, A0A3B3IUB9, the log2 fold change is inactive: 0.149 in [1]; inactive: -0.007 in experiment [3]; inactive: 0.036 in [4]; inactive: -0.224 in [5]; inactive: -0.077 in [6]; inactive: -0.163 in [7]. The log2 fold change is inactive: 0.102 in [8]; inactive: -0.058 in [10]; inactive: 0.046 in experiment [11]; inactive: 0.11 in experiment [12]; inactive: 0.167 in experiment [13]; inactive: -0.168 in [14]. Besides, the log2 fold change in experiment [15] is inactive: -0.019; in experiment [16], inactive: -0.143.
As for BNIP2 (UniProt H7C096), the log2 fold change in experiment [1] was inactive: -0.014; in [2], inactive: -0.013; in experiment [4] it was inactive: 0.005; in experiment [6] it was inactive: -0.057; in [7] it was inactive: -0.008; in [9], inactive: -0.073. In addition, the figures for the log2 fold change in experiment [10] and in [15] were inactive: 0.123 and inactive: -0.046, respectively.
On to BEX2 isoform 2 (UniProt Q9BXY8), for which the log2 fold change is inactive: -0.015 in experiment [1]; inactive: -0.181 in experiment [4]; inactive: 0.045 in [6]; inactive: 0.085 in experiment [10]; inactive: -0.024 in experiment [15].
On to B4GALT1 (UniProt P15291), for which the log2 fold change was inactive: 0.071 in experiment [1]; inactive: -0.049 in experiment [2]; inactive: 0.036 in experiment [3]; inactive: -0.005 in experiment [4]; inactive: -0.027 in experiment [6]; inactive: -0.1 in [7]. Also, the log2 fold change is inactive: -0.005 in [8]; inactive: 0.05 in experiment [9]; inactive: 0.012 in experiment [10]; inactive: 0.021 in experiment [17]; inactive: -0.028 in experiment [18]; inactive: -0.023 in experiment [19]. Also, the log2 fold change in [13] is inactive: 0.003; in experiment [20], inactive: 0.009; in [14] it was inactive: 0.026; in [15], inactive: 0.028; in experiment [16] it was inactive: -0.022.
Turning to BRF1 (UniProt Q92994), the log2 fold change was inactive: -0.038 in experiment [2]; inactive: -0.062 in experiment [3]; inactive: -0.036 in [4]; inactive: 0.079 in [5]; inactive: -0.216 in experiment [6]; inactive: -0.034 in experiment [7]. The log2 fold change in experiment [8] is inactive: 0.087; in experiment [9], inactive: -0.02; in experiment [10] it was inactive: 0.019; in experiment [17], inactive: 0.274; in experiment [18], inactive: -0.114; in experiment [11], inactive: -0.074. Moreover, the log2 fold change in experiment [19] was inactive: -0.114; in experiment [12], inactive: 0.013; in [13], inactive: -0.166; in experiment [20] it was inactive: -0.175; in [14], inactive: 0.049; in [16] it was inactive: 0.04.
As for BCL7A (UniProt Q4VC05), the log2 fold change was inactive: -0.083 in experiment [1]; inactive: -0.024 in experiment [2]; inactive: 0.09 in experiment [3]; inactive: -0.198 in [4]; inactive: 0.016 in experiment [5]; inactive: 0.067 in experiment [6]. Also, the log2 fold change in experiment [8] was inactive: -0.025; in experiment [9] it was inactive: -0.01; in experiment [10] it was inactive: -0.059; in experiment [11] it was inactive: 0.064; in experiment [12], inactive: -0.014; in [13] it was inactive: -0.093. Further, the log2 fold change was inactive: 0.053 in experiment [14] and inactive: -0.196 in experiment [15].
